# Test results published in the supplement of paper PMC8728848.
# Some of the results follow.
# B1: ERGIC1-EDTA (Homo sapiens), Q969X5 (protein)
# chain: MKFLVNVALVFMVVYISYIYAAAHMHHHHHHDYDIPTTENLYFQGSEVVNELYVDDPDKDSGGKIDVSLNISLPNLHCELVGLDIQDEMGRHEVGHIDNSMKIPLNNGAGCRFEGQFSINKVPGNFHVSTHSATAQPQNPDMTHVIHKLSFGDTLQVQNIHGAFNALGGADRLTSNPLASHDYILKIVPTVYEDKSGKQRYSYQYTVANKEYVAYSHTGRIIPAIWFRYDLSPITVKYTE
# Key:
# Test in all cases: glycan array binding signal (z-score within array); higher = stronger binding
# Conditions in all cases: glycan notation: IUPAC condensed, linker removed
# Fuc(a1-2)Gal = target: Fuc(a1-2)Gal
# Method in brief: (§1)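 Columns mapping to the same glycan were averaged after glycan names were converted to IUPAC-condensed notation. The data come from 3228 arrays in the Consortium for Functional Glycomics database, limited to those with an available protein sequence. Binding is reported as a within-array Z-score averaged across arrays of one protein sequence and across linkers.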
# Fuc(a1-2)Gal(b1-3)GalNAc = target: Fuc(a1-2)Gal(b1-3)GalNAc
# Method in brief: as §1
# [1] = target: Fuc(a1-2)Gal(b1-3)GalNAc(a1-3)[Fuc(a1-2)]Gal(b1-4)Glc
# Method in brief: as §1
# [2] = target: Fuc(a1-2)Gal(b1-3)GalNAc(a1-3)[Fuc(a1-2)]Gal(b1-4)GlcNAc
# Method in brief: as §1
# [3] = target: Fuc(a1-2)Gal(b1-3)GalNAc(b1-3)Gal
# Method in brief: as §1
# [4] = target: Fuc(a1-2)Gal(b1-3)GalNAc(b1-3)Gal(a1-4)Gal(b1-4)Glc
# Method in brief: as §1
# [5] = target: Fuc(a1-2)Gal(b1-3)GalNAc(b1-4)[Neu5Ac(a2-3)]Gal(b1-4)Glc
# Method in brief: as §1
# Fuc(a1-2)Gal(b1-3)GlcNAc = target: Fuc(a1-2)Gal(b1-3)GlcNAc
# Method in brief: as §1
# [6] = target: Fuc(a1-2)Gal(b1-3)GlcNAc(b1-2)Man(a1-3)[Fuc(a1-2)Gal(b1-3)GlcNAc(b1-2)Man(a1-6)]Man(b1-4)GlcNAc(b1-4)GlcNAc
# Method in brief: as §1
# [7] = target: Fuc(a1-2)Gal(b1-3)GlcNAc(b1-2)Man(a1-3)[Fuc(a1-2)Gal(b1-3)GlcNAc(b1-2)Man(a1-6)]Man(b1-4)GlcNAc(b1-4)[Fuc(a1-6)]GlcNAc
# Method in brief: as §1
# [8] = target: Fuc(a1-2)Gal(b1-3)GlcNAc(b1-3)Gal(b1-4)Glc
# Method in brief: as §1
# [9] = target: Fuc(a1-2)Gal(b1-3)GlcNAc(b1-3)GalNAc
# Method in brief: as §1
# [10] = target: Fuc(a1-2)Gal(b1-3)GlcNAc(b1-3)[Fuc(a1-2)Gal(b1-3)GlcNAc(b1-6)]GalNAc
# Method in brief: as §1
# [11] = target: Fuc(a1-2)Gal(b1-3)GlcNAc(b1-3)[Gal(b1-4)GlcNAc(b1-6)]Gal(b1-4)Glc
# Method in brief: as §1
# [12] = target: Fuc(a1-2)Gal(b1-3)GlcNAc(b1-3)[Neu5Ac(a2-6)Gal(b1-4)GlcNAc(b1-6)]Gal(b1-4)Glc
# Method in brief: as §1
# [13] = target: Fuc(a1-2)Gal(b1-3)GlcNAc6S
# Method in brief: as §1
# [14] = target: Fuc(a1-2)Gal(b1-3)[Fuc(a1-4)]GlcNAc
# Method in brief: as §1
# [15] = target: Fuc(a1-2)Gal(b1-3)[Fuc(a1-4)]GlcNAc(b1-2)Man(a1-3)[Fuc(a1-2)Gal(b1-3)[Fuc(a1-4)]GlcNAc(b1-2)Man(a1-3)]Man(b1-4)GlcNAc(b1-4)GlcNAc
# Method in brief: as §1
# [16] = target: Fuc(a1-2)Gal(b1-3)[Fuc(a1-4)]GlcNAc(b1-2)Man(a1-3)[Fuc(a1-2)Gal(b1-3)[Fuc(a1-4)]GlcNAc(b1-2)Man(a1-6)]Man(b1-4)GlcNAc(b1-4)[Fuc(a1-6)]GlcNAc(b1-4)[Fuc(a1-6)]GlcNAc
# Method in brief: as §1
# [17] = target: Fuc(a1-2)Gal(b1-3)[Fuc(a1-4)]GlcNAc(b1-3)[Fuc(a1-3)[Gal(b1-4)]GlcNAc(b1-6)]Gal(b1-4)Glc
# Method in brief: as §1
# [18] = target: Fuc(a1-2)Gal(b1-3)[Fuc(a1-4)]GlcNAc(b1-3)[Gal(b1-4)GlcNAc(b1-6)]Gal(b1-4)Glc
# Method in brief: as §1
# [19] = target: Fuc(a1-2)Gal(b1-4)Fuc(a1-3)]GlcNAc(b1-2)Man(a1-3)[Fuc(a1-2)Gal(b1-4)[Fuc(a1-3)]GlcNAc(b1-2)Man(a1-6)]Man(b1-4)GlcNAc(b1-4)GlcNAc
# Method in brief: as §1
# Fuc(a1-2)Gal(b1-4)Glc = target: Fuc(a1-2)Gal(b1-4)Glc
# Method in brief: as §1
# Fuc(a1-2)Gal(b1-4)Glc6S = target: Fuc(a1-2)Gal(b1-4)Glc6S
# Method in brief: as §1
# Fuc(a1-2)Gal(b1-4)GlcNAc = target: Fuc(a1-2)Gal(b1-4)GlcNAc
# Method in brief: as §1
# [20] = target: Fuc(a1-2)Gal(b1-4)GlcNAc(b1-2)Man
# Method in brief: as §1
# [21] = target: Fuc(a1-2)Gal(b1-4)GlcNAc(b1-2)Man(a1-3)[Fuc(a1-2)Gal(b1-4)GlcNAc(b1-2)Man(a1-6)]Man(b1-4)GlcNAc(b1-4)GlcNAc
# Method in brief: as §1
# [22] = target: Fuc(a1-2)Gal(b1-4)GlcNAc(b1-2)Man(a1-3)[Fuc(a1-2)Gal(b1-4)GlcNAc(b1-2)Man(a1-6)]Man(b1-4)GlcNAc(b1-4)[Fuc(a1-6)]GlcNAc
# Method in brief: as §1
# [23] = target: Fuc(a1-2)Gal(b1-4)GlcNAc(b1-2)[Fuc(a1-2)Gal(b1-4)GlcNAc(b1-4)]Man(a1-3)[Fuc(a1-2)Gal(b1-4)GlcNAc(b1-2)Man(a1-6)]Man(b1-4)GlcNAc(b1-4)GlcNAc
# Method in brief: as §1
# [24] = target: Fuc(a1-2)Gal(b1-4)GlcNAc(b1-3)Gal(b1-4)GlcNAc
# Method in brief: as §1
binder,measurement,setting,value
B1,glycan array binding signal (z-score),Fuc(a1-2)Gal,0.744
same,glycan array binding signal (z-score),Fuc(a1-2)Gal(b1-3)GalNAc,-0.119
same,glycan array binding signal (z-score),[1],0.453
same,glycan array binding signal (z-score),[2],-0.308
same,glycan array binding signal (z-score),[3],1.15
same,glycan array binding signal (z-score),[4],-0.752
same,glycan array binding signal (z-score),[5],-1.11
same,glycan array binding signal (z-score),Fuc(a1-2)Gal(b1-3)GlcNAc,-0.107
same,glycan array binding signal (z-score),[6],1.02
same,glycan array binding signal (z-score),[7],0.972
same,glycan array binding signal (z-score),[8],-0.301
same,glycan array binding signal (z-score),[9],-0.417
same,glycan array binding signal (z-score),[10],-0.309
same,glycan array binding signal (z-score),[11],-0.151
same,glycan array binding signal (z-score),[12],-0.999
same,glycan array binding signal (z-score),[13],-0.017
same,glycan array binding signal (z-score),[14],0.064
same,glycan array binding signal (z-score),[15],1.16
same,glycan array binding signal (z-score),[16],0.316
same,glycan array binding signal (z-score),[17],-0.833
same,glycan array binding signal (z-score),[18],1.36
same,glycan array binding signal (z-score),[19],1.01
same,glycan array binding signal (z-score),Fuc(a1-2)Gal(b1-4)Glc,-1.4
same,glycan array binding signal (z-score),Fuc(a1-2)Gal(b1-4)Glc6S,-0.045
same,glycan array binding signal (z-score),Fuc(a1-2)Gal(b1-4)GlcNAc,0.072
same,glycan array binding signal (z-score),[20],-0.469
same,glycan array binding signal (z-score),[21],0.786
same,glycan array binding signal (z-score),[22],0.522
same,glycan array binding signal (z-score),[23],2.88
same,glycan array binding signal (z-score),[24],-1.26

# Part of the list above, tab-delimited:
binder	measurement	setting	value
B1	glycan array binding signal (z-score)	[13]	-0.017
same	glycan array binding signal (z-score)	[22]	0.522
